This is an account of results in publication PMC4856097.

Amino acid sequences for entries named in this document (tags omitted). Residues count along the entry.
UniProt P08964: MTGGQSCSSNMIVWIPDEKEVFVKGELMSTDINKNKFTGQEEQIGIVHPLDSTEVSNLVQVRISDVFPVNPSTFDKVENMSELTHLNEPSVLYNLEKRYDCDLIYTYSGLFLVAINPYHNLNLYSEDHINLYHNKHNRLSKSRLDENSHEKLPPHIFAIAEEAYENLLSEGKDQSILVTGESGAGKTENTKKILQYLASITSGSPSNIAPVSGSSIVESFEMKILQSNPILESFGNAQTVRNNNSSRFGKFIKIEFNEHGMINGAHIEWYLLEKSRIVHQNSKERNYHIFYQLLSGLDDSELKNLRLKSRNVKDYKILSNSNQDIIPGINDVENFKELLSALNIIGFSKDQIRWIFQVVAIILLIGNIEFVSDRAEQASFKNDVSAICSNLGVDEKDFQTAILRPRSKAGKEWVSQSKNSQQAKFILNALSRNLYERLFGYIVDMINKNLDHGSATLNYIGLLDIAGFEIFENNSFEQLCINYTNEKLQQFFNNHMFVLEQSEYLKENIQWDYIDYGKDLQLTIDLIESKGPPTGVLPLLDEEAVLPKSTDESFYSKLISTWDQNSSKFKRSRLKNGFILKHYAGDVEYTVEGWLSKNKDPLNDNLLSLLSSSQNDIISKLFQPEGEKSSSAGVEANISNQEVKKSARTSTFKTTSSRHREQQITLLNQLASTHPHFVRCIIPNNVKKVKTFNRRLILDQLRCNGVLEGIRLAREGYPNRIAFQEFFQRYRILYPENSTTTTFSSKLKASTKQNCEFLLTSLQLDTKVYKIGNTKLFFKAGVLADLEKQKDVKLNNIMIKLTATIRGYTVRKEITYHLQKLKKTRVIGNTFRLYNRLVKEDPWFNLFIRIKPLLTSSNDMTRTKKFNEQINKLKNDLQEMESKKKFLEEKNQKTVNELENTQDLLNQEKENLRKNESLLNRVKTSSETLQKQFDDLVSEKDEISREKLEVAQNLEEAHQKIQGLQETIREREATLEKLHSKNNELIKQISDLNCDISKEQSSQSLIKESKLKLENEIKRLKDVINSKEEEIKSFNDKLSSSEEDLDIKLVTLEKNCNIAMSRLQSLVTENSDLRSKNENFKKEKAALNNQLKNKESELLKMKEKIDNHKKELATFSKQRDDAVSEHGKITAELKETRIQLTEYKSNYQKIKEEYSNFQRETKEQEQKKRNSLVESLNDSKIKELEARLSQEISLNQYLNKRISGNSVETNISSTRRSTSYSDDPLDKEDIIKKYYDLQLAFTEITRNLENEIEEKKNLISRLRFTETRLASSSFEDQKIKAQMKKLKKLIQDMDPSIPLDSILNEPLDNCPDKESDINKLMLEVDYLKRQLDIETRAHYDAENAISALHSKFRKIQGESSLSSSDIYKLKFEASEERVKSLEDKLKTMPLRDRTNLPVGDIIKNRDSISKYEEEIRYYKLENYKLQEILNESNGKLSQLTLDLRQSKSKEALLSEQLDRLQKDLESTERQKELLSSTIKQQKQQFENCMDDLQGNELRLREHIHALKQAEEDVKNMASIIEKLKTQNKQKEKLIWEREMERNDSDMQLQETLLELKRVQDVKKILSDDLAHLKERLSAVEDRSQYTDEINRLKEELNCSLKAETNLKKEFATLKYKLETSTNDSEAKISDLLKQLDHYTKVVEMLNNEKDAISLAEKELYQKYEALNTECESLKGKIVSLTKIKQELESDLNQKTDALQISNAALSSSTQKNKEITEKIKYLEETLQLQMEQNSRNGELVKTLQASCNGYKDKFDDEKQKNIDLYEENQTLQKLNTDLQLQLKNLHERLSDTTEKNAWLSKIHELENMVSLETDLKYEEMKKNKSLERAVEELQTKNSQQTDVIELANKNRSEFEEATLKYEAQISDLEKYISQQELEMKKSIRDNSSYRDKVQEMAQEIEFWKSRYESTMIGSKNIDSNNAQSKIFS
UniProt P16474, residues 43-682: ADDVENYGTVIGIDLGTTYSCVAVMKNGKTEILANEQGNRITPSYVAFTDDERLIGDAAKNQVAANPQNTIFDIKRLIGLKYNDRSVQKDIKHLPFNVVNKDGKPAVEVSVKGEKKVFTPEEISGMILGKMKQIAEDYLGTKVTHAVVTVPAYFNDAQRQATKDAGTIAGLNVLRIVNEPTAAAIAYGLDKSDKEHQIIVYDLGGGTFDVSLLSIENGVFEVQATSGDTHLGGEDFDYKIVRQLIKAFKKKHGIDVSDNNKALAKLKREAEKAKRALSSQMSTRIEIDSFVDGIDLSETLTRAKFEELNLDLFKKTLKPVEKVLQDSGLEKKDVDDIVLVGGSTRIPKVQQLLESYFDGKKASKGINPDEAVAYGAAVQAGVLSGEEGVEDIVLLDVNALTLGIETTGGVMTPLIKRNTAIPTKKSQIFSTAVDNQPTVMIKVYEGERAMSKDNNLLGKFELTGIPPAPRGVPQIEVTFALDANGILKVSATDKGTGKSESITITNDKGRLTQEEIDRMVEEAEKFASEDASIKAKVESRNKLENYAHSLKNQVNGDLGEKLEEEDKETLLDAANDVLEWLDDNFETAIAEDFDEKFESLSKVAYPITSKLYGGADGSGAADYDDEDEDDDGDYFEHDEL

Experiment [1] addresses Myo1-GFP (GFP tagged to the Myo1 C-terminus) (S. cerevisiae) (UniProt P08964). Nature of the experiment: affinity purification with mass spectrometry; Myo1-GFP captured from yeast lysate on anti-GFP Miltenyi µbeads; BY4741 as negative control; triplicate; Orbitrap Elite MS/MS, SEQUEST.
For experiment [2] the target is unchanged. The description is as above. This is another data set of the same source.

Where two headings read alike, the source gives them in different places. These are yes or no findings as the source states them, for the method shown. In cells and extracts the contact can be indirect. These calls come from enrichment with a bait or labelling near it, and not all partners need be listed.

“Act1p, endogenous (from UniProt P60010 1-375)”: the binding entry in experiment [1] is recorded as “binds”.
On to “Kar2p, endogenous (from UniProt P16474 43-682)”, for which the binding entry in experiment [1] is “binds”.

B1: Bni5p, endogenous (protein, UniProt P53890 1-448)
chain: MGLDQDKIKKRLSQIEIDINQMNQMIDENLQLVEPAEDEAVEDNVKDTGVVDAVKVAETALFSGNDGADSNPGDSAQVEEHKTAQVHIPTENEANKSTDDPSQLSVTQPFIAKEQITHTAIAIGDSYNSFVANSAGNEKAKDSCTENKEDGTVNIDQNRGEADVEIIENNDDEWEDEKSDVEEGRVDKGTEENSEIESFKSPMPQNNTLGGENKLDAELVLDKFSSANKDLDIQPQTIVVGGDNEYNHESSRLADQTPHDDNSENCPNRSGGSTPLDSQTKIFIPKKNSKEDGTNINHFNSDGDGQKKMANFETRRPTNPFRVISVSSNSNSRNGSRKSSLNKYDSPVSSPITSASELGSIAKLEKRHDYLSMKCIKLQKEIDYLNKMNAQGSLSMEDGKRLHRAVVKLQEYLDKKTKEKYEVGVLLSRHLRKQIDRGENGQFWIGTK
For B1, in experiment [2], the binding result is “binds”.

B2: Mlc1p, endogenous (protein, UniProt P53141 1-149)
chain: MSATRANKDIFTLFDKKGQGAIAKDSLGDYLRAIGYNPTNQLVQDIINADSSLRDASSLTLDQITGLIEVNEKELDATTKAKTEDFVKAFQVFDKESTGKVSVGDLRYMLTGLGEKLTDAEVDELLKGVEVDSNGEIDYKKFIEDVLRQ
For the molecule B2, the binding result in experiment [2] is “binds”.

B3: Abp1p, endogenous (protein, UniProt P15891 1-592)
chain: MALEPIDYTTHSREIDAEYLKIVRGSDPDTTWLIISPNAKKEYEPESTGSSFHDFLQLFDETKVQYGLARVSPPGSDVEKIIIIGWCPDSAPLKTRASFAANFAAVANNLFKGYHVQVTARDEDDLDENELLMKISNAAGARYSIQTSSKQQGKASTPPVKKSFTPSKSPAPVSKKEPVKTPSPAPAAKISSRVNDNNDDDDWNEPELKERDFDQAPLKPNQSSYKPIGKIDLQKVIAEEKAKEDPRLVQKPTAAGSKIDPSSDIANLKNESKLKRDSEFNSFLGTTKPPSMTESSLKNDDDKVIKGFRNEKSPAQLWAERKAKQNSGNAETKAEAPKPEVPEDEPEGEPDVKDLKSKFEGLAASEKEEEEMENKFAPPPKKSEPTIISPKPFSKPQEPVKAEEAEQPKTDYKKIGNPLPGMHIEADNEEEPEENDDDWDDDEDEAAQPPLPSRNVASGAPVQKEEPEQEEIAPSLPSRNSIPAPKQEEAPEQAPEEEIEEEAEEAAPQLPSRSSAAPPPPPRRATPEKKPKENPWATAEYDYDAAEDNELTFVENDKIINIEFVDDDWWLGELEKDGSKGLFPSNYVSLGN
With B3, in experiment [2], the binding result is “binds”.
